# According to the supplement of paper PMC8728848:
# The other results are listed elsewhere or left out.
# B1: Pbx1CASH domain (Cryptococcus neoformans) (protein)
# chain: MDETKPLWGNPRADGISLACKDSIVERNVVYDATDGAIVLFGSAGSTVKNNHVYARTRVILGGINLVDYEPWDGDYTNVKVHHNHLYALGRYFKVGIVIGPASWSDDTESVVHSASVTDNEFSGGYWGYGIVVASAKNFEVLRNKVIWDGEQGVARFSGVPGS
# What was measured:
# Experiment in all cases: glycan array binding signal (z-score within array); higher = stronger binding
# Details in all cases: glycan notation: IUPAC condensed, linker removed
# [1] = biological target: Neu5Ac(a2-3)Gal(b1-3)GalNAc(b1-3)Gal(a1-4)Gal(b1-4)Glc
# Method in brief: (§1)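 The binding signal is a Z-score computed within each array and averaged over linkers. Arrays of the same protein sequence at different concentrations or buffers were also averaged together. Data originate from 3228 arrays in the Consortium for Functional Glycomics database, kept only where the protein sequence was available.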
# [2] = biological target: Neu5Ac(a2-3)Gal(b1-3)GalNAc(b1-4)[Neu5Ac(a2-3)]Gal(b1-4)Glc
# Method in brief: as §1
# [3] = biological target: Neu5Ac(a2-3)Gal(b1-3)GalNAc(b1-4)[Neu5Ac(a2-8)Neu5Ac(a2-3)]Gal(b1-4)Glc
# Method in brief: as §1
# [4] = biological target: Neu5Ac(a2-3)Gal(b1-3)GalNAc6S
# Method in brief: as §1
# [5] = biological target: Neu5Ac(a2-3)Gal(b1-3)GlcNAc
# Method in brief: as §1
# [6] = biological target: Neu5Ac(a2-3)Gal(b1-3)GlcNAc(b1-2)Man
# Method in brief: as §1
# [7] = biological target: Neu5Ac(a2-3)Gal(b1-3)GlcNAc(b1-2)Man(a1-3)[GlcNAc(b1-4)][Neu5Ac(a2-3)Gal(b1-3)GlcNAc(b1-2)Man(a1-6)]Man(b1-4)GlcNAc(b1-4)GlcNAc
# Method in brief: as §1
# [8] = biological target: Neu5Ac(a2-3)Gal(b1-3)GlcNAc(b1-2)Man(a1-3)[Neu5Ac(a2-3)Gal(b1-3)GlcNAc(b1-2)Man(a1-6)]Man(b1-4)GlcNAc(b1-4)GlcNAc
# Method in brief: as §1
# [9] = biological target: Neu5Ac(a2-3)Gal(b1-3)GlcNAc(b1-3)Gal(b1-3)GlcNAc
# Method in brief: as §1
# [10] = biological target: Neu5Ac(a2-3)Gal(b1-3)GlcNAc(b1-3)Gal(b1-4)GlcNAc
# Method in brief: as §1
# [11] = biological target: Neu5Ac(a2-3)Gal(b1-3)GlcNAc(b1-3)GalNAc
# Method in brief: as §1
# [12] = biological target: Neu5Ac(a2-3)Gal(b1-3)GlcNAc(b1-4)Gal(b1-4)Glc
# Method in brief: as §1
# [13] = biological target: Neu5Ac(a2-3)Gal(b1-3)GlcNAc(b1-6)GalNAc
# Method in brief: as §1
# [14] = biological target: Neu5Ac(a2-3)Gal(b1-3)GlcNAc6S
# Method in brief: as §1
# [15] = biological target: Neu5Ac(a2-3)Gal(b1-3)[Fuc(a1-4)]GlcNAc
# Method in brief: as §1
# [16] = biological target: Neu5Ac(a2-3)Gal(b1-3)[Fuc(a1-4)]GlcNAc(b1-3)Gal(b1-3)[Fuc(a1-4)]GlcNAc
# Method in brief: as §1
# [17] = biological target: Neu5Ac(a2-3)Gal(b1-3)[Fuc(a1-4)]GlcNAc(b1-3)Gal(b1-4)[Fuc(a1-3)]GlcNAc
# Method in brief: as §1
# [18] = biological target: Neu5Ac(a2-3)Gal(b1-3)[GlcNAc(b1-6)]GalNAc
# Method in brief: as §1
# [19] = biological target: Neu5Ac(a2-3)Gal(b1-3)[Neu5Ac(a2-6)]GalNAc
# Method in brief: as §1
# [20] = biological target: Neu5Ac(a2-3)Gal(b1-3)[Neu5Ac(a2-6)]GlcNAc(b1-3)[Fuc(a1-3)[Gal(b1-4)]GlcNAc(b1-6)]Gal(b1-4)Glc
# Method in brief: as §1
# [21] = biological target: Neu5Ac(a2-3)Gal(b1-3)]Neu5Ac(a2-3)Gal(b1-4)]GlcNAc
# Method in brief: as §1
# [22] = biological target: Neu5Ac(a2-3)Gal(b1-4)Glc
# Method in brief: as §1
# [23] = biological target: Neu5Ac(a2-3)Gal(b1-4)GlcNAc
# Method in brief: as §1
# [24] = biological target: Neu5Ac(a2-3)Gal(b1-4)GlcNAc(b1-2)Man
# Method in brief: as §1
# [25] = biological target: Neu5Ac(a2-3)Gal(b1-4)GlcNAc(b1-2)Man(a1-3)[GlcNAc(b1-4)][Neu5Ac(a2-3)Gal(b1-4)GlcNAc(b1-2)Man(a1-6)]Man(b1-4)GlcNAc(b1-4)GlcNAc
# Method in brief: as §1
# [26] = biological target: Neu5Ac(a2-3)Gal(b1-4)GlcNAc(b1-2)Man(a1-3)[Neu5Ac(a2-3)Gal(b1-4)GlcNAc(b1-2)Man(a1-6)]Man(b1-4)GlcNAc(b1-4)GlcNAc
# Method in brief: as §1
# [27] = biological target: Neu5Ac(a2-3)Gal(b1-4)GlcNAc(b1-2)Man(a1-3)[Neu5Ac(a2-3)Gal(b1-4)GlcNAc(b1-2)Man(a1-6)]Man(b1-4)GlcNAc(b1-4)[Fuc(a1-6)]GlcNAc
# Method in brief: as §1
# [28] = biological target: Neu5Ac(a2-3)Gal(b1-4)GlcNAc(b1-2)Man(a1-3)[Neu5Ac(a2-6)Gal(b1-4)GlcNAc(b1-2)Man(a1-6)]Man(b1-4)GlcNAc(b1-4)GlcNAc
# Method in brief: as §1
# [29] = biological target: Neu5Ac(a2-3)Gal(b1-4)GlcNAc(b1-2)[Neu5Ac(a2-3)Gal(b1-4)GlcNAc(b1-4)]Man(a1-3)[GlcNAc(b1-4)][Neu5Ac(a2-3)Gal(b1-4)GlcNAc(b1-2)[Neu5Ac(a2-3)Gal(b1-4)GlcNAc(b1-6)]Man(a1-6)]Man(b1-4)GlcNAc(b1-4)GlcNAc
# Method in brief: as §1
# [30] = biological target: Neu5Ac(a2-3)Gal(b1-4)GlcNAc(b1-2)[Neu5Ac(a2-3)Gal(b1-4)GlcNAc(b1-4)]Man(a1-3)[GlcNAc(b1-4)][Neu5Ac(a2-3)Gal(b1-4)GlcNAc(b1-4)Man(a1-6)]Man(b1-4)GlcNAc(b1-4)GlcNAc
# Method in brief: as §1
# [31] = biological target: Neu5Ac(a2-3)Gal(b1-4)GlcNAc(b1-2)[Neu5Ac(a2-3)Gal(b1-4)GlcNAc(b1-6)]Man(a1-6)[Neu5Ac(a2-3)Gal(b1-4)GlcNAc(b1-2)Man(a1-3)]Man(b1-4)GlcNAc(b1-4)GlcNAc
# Method in brief: as §1
# [32] = biological target: Neu5Ac(a2-3)Gal(b1-4)GlcNAc(b1-2)[Neu5Ac(a2-3)Gal(b1-4)GlcNAc(b1-6)]Man(a1-6)[Neu5Ac(a2-3)Gal(b1-4)GlcNAc(b1-2)Man(a1-3)][GlcNAc(b1-4)]Man(b1-4)GlcNAc(b1-4)GlcNAc
# Method in brief: as §1
# [33] = biological target: Neu5Ac(a2-3)Gal(b1-4)GlcNAc(b1-3)Gal
# Method in brief: as §1
# [34] = biological target: Neu5Ac(a2-3)Gal(b1-4)GlcNAc(b1-3)Gal(b1-3)GlcNAc
# Method in brief: as §1
# [35] = biological target: Neu5Ac(a2-3)Gal(b1-4)GlcNAc(b1-3)Gal(b1-4)GlcNAc
# Method in brief: as §1
# [36] = biological target: Neu5Ac(a2-3)Gal(b1-4)GlcNAc(b1-3)Gal(b1-4)GlcNAc(b1-2)Man(a1-3)[Neu5Ac(a2-3)Gal(b1-4)GlcNAc(b1-3)Gal(b1-4)GlcNAc(b1-2)Man(a1-6)]Man(b1-4)GlcNAc(b1-4)GlcNAc
# Method in brief: as §1
# [37] = biological target: Neu5Ac(a2-3)Gal(b1-4)GlcNAc(b1-3)Gal(b1-4)GlcNAc(b1-3)Gal(b1-4)GlcNAc
# Method in brief: as §1
# [38] = biological target: Neu5Ac(a2-3)Gal(b1-4)GlcNAc(b1-3)Gal(b1-4)GlcNAc(b1-3)Gal(b1-4)GlcNAc(b1-2)Man(a1-3)[Neu5Ac(a2-3)Gal(b1-4)GlcNAc(b1-3)Gal(b1-4)GlcNAc(b1-3)Gal(b1-4)GlcNAc(b1-2)Man(a1-6)]GalNAc
# Method in brief: as §1
# [39] = biological target: Neu5Ac(a2-3)Gal(b1-4)GlcNAc(b1-3)Gal(b1-4)GlcNAc(b1-3)GalNAc
# Method in brief: as §1
# [40] = biological target: Neu5Ac(a2-3)Gal(b1-4)GlcNAc(b1-3)Gal(b1-4)GlcNAc(b1-3)[Neu5Ac(a2-3)Gal(b1-4)GlcNAc(b1-3)Gal(b1-4)GlcNAc(b1-6)]GalNAc
# Method in brief: as §1
# [41] = biological target: Neu5Ac(a2-3)Gal(b1-4)GlcNAc(b1-3)Gal(b1-4)GlcNAc(b1-6)[Gal(b1-3)]GalNAc
# Method in brief: as §1
# [42] = biological target: Neu5Ac(a2-3)Gal(b1-4)GlcNAc(b1-3)Gal(b1-4)[Fuc(a1-3)]GlcNAc
# Method in brief: as §1
# [43] = biological target: Neu5Ac(a2-3)Gal(b1-4)GlcNAc(b1-3)GalNAc
# Method in brief: as §1
# [44] = biological target: Neu5Ac(a2-3)Gal(b1-4)GlcNAc(b1-3)[Neu5Ac(a2-3)Gal(b1-4)GlcNAc(b1-6)]GalNAc
# Method in brief: as §1
# [45] = biological target: Neu5Ac(a2-3)Gal(b1-4)GlcNAc(b1-6)GalNAc
# Method in brief: as §1
binder,measurement,setting,value
B1,glycan array binding signal (z-score),[1],0.338
same,glycan array binding signal (z-score),[2],-0.169
same,glycan array binding signal (z-score),[3],0.435
same,glycan array binding signal (z-score),[4],-0.62
same,glycan array binding signal (z-score),[5],-0.491
same,glycan array binding signal (z-score),[6],1.24
same,glycan array binding signal (z-score),[7],-0.044
same,glycan array binding signal (z-score),[8],2.22
same,glycan array binding signal (z-score),[9],-0.164
same,glycan array binding signal (z-score),[10],0.137
same,glycan array binding signal (z-score),[11],-0.077
same,glycan array binding signal (z-score),[12],0.567
same,glycan array binding signal (z-score),[13],-0.316
same,glycan array binding signal (z-score),[14],0.698
same,glycan array binding signal (z-score),[15],-0.375
same,glycan array binding signal (z-score),[16],-0.309
same,glycan array binding signal (z-score),[17],-0.701
same,glycan array binding signal (z-score),[18],0.877
same,glycan array binding signal (z-score),[19],0.03
same,glycan array binding signal (z-score),[20],-0.764
same,glycan array binding signal (z-score),[21],-0.205
same,glycan array binding signal (z-score),[22],-0.606
same,glycan array binding signal (z-score),[23],-0.811
same,glycan array binding signal (z-score),[24],2.55
same,glycan array binding signal (z-score),[25],0.499
same,glycan array binding signal (z-score),[26],-0.62
same,glycan array binding signal (z-score),[27],-0.325
same,glycan array binding signal (z-score),[28],0.108
same,glycan array binding signal (z-score),[29],1.21
same,glycan array binding signal (z-score),[30],1.05
same,glycan array binding signal (z-score),[31],-0.136
same,glycan array binding signal (z-score),[32],0.771
same,glycan array binding signal (z-score),[33],0.289
same,glycan array binding signal (z-score),[34],-0.104
same,glycan array binding signal (z-score),[35],-0.499
same,glycan array binding signal (z-score),[36],2.42
same,glycan array binding signal (z-score),[37],-0.198
same,glycan array binding signal (z-score),[38],3.29
same,glycan array binding signal (z-score),[39],0.774
same,glycan array binding signal (z-score),[40],-0.158
same,glycan array binding signal (z-score),[41],1
same,glycan array binding signal (z-score),[42],-0.205
same,glycan array binding signal (z-score),[43],-0.184
same,glycan array binding signal (z-score),[44],-0.296
same,glycan array binding signal (z-score),[45],0.564

# 3 entries from above, reformatted.
binder | measurement | setting | value
B1 | glycan array binding signal (z-score) | [4] | -0.62
same | glycan array binding signal (z-score) | [8] | 2.22
same | glycan array binding signal (z-score) | [35] | -0.499
